Experimental data taken from article doi:10.1101/2023.02.27.530350 (bioRxiv, 2023).
Like-named read-outs stand apart in the source and are kept apart here. These are yes or no findings as the source states them, for the method shown. Binding seen in cells or lysates may run through a third protein. Binding calls can cover weak binding; strength is not graded here. Where a sequence is shown, tags or fusion partners need not be part of it.

Tests used:
[1] = target: T1, WalK-LgBIT (native WalK, sensor histidine kinase) (Staphylococcus aureus) (UniProt Q2FKN7); test: split reporter
T1 sequence: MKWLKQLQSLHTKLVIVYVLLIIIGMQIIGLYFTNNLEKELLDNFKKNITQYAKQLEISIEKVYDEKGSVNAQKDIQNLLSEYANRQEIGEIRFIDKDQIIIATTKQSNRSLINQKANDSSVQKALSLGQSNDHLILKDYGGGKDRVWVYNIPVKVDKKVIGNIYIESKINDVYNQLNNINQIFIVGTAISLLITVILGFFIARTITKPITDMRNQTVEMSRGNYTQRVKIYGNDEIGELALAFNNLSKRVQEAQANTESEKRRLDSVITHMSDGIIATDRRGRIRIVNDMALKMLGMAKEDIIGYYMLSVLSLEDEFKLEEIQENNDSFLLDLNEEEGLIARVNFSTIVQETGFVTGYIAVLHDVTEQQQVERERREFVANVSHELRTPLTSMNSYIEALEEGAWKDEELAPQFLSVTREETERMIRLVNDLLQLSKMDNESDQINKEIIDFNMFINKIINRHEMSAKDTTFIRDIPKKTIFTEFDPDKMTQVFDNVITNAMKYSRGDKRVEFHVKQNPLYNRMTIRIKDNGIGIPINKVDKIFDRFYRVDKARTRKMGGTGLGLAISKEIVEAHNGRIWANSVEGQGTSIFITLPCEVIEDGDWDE

[2] = target: T1, WalK-LgBIT (native WalK, sensor histidine kinase) (Staphylococcus aureus); test: split reporter; remark: listed apart in the source

Question: Which binding [1] does the source give for “WalK_(D53A/T101A) (as printed; taken as WalR D53A/T101A-SmBIT) (from UniProt Q2FKN8)” here?
Answer: binds

Question: And the binding [2]?
Answer: binds
